Experimental findings from PubChem BioAssay AID1347423 (Functional Genomics Laboratory (NCATS/FGL), 2020) are described below.

Out of some 52,000 sequences screened, about 210 (0.4%) were called active.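 How the source made its calls: active means gene whose silencing raises cell survival under the drug, median off-target-corrected z-score across its silencing RNAs 2 or more; inactive means the rest.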 The list shows a part of the results.

This assay is described as follows: Resistance to Poly (ADP-Ribose) Polymerase inhibitor: Gene Identification via Genome-wide siRNA Screen. The note with it: mouse BRCA2 R2336H ES cells, olaparib, CellTiter-Glo viability; hits give high values. Summed up: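 Mouse BRCA2 R2336H ES cells were reverse-transfected with siRNA (20 nM final), treated at 48 h with 500 nM olaparib, and read by CellTiter-Glo after 72 h. Scores: MAD-based z per siRNA, median per gene, seed off-target correction.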
In general terms: In ATP-based viability assays light output follows the ATP content of the culture.
For the sequence “GCGAACAGUUGAAUAGAUUTT against 1200007B05Rik”, the z-score is inactive: 0.716.
For the sequence CCUGUGAUGUGAUCAUUAATT against Pigr, the z-score was inactive: 2.29.
For GCUACACCGAGGACAGUUUTT against Nid2 the value was inactive: -1.85; for GGGAUUAUGUGUCAUUUGUTT against Amaco, inactive: -0.675; for GGAAUCAUUCACAGCAUGUTT against Arhgap15, inactive: 1.01.
As for GCAUGCUUGGAACAUUCCGTT against Catna3, the z-score was inactive: 0.571.
In the case of CGAUUGCUCUUAACCCUUGTT against Zfp597, the z-score is inactive: -1.14.
Next, “GGAAAUAGCCAGAAUAAGGTT against 1300006M19Rik”: inactive: 0.153.
Next, GCAGUAGUCUUGGAAUUAATT against Bhlhb3: inactive: -0.478; GGAUCUUACAGUCAGAGAGTT against Cdh4: inactive: 1.32.
Regarding “GGCGAAUGGGAUUUCUAUUTT against 1700016F23Rik”, the z-score is inactive: 0.701.
As for CGCACACACUGAACUUUAATT against Slco1a1, the z-score was inactive: 0.784.
Next, GUAGAAACUUCUCGUUCACTT against Tcl1b3: inactive: 0.549; GGAGAUAUUAUUGUUCAGATT against Tmem2: inactive: 0.226.
For the sequence GCCAAGCAUUAAGUGAUAATT against Setmar, the z-score is inactive: -0.538.
For the sequence “GAUCUCAGCGGUUCUAUAGTT against 2310034L04Rik”, the z-score was inactive: 2.44.
For CCCGUCACAUCUCAUUCCATT against Tpmt the value was inactive: 0.127.
Next, GGCAGCAUUAUCAACCGGATT against Rgs19ip3: inactive: -0.177; CCCAAGAGUGUUUGAGAACTT against Zfp297b: inactive: 0.0814.
Consider “GCUGAGACUAAACAUUGUATT against 2610008E11Rik”, for which the z-score is inactive: 0.118.
Regarding GGAGCUGAAGAUCAAGGAGTT against Pkn3, the z-score was inactive: 1.12.
For GGAAAUGAUCCAUCAACUCTT against Lgr7 the value was inactive: -0.388.
Take GGAUUUCUACAGGGUGUAUTT against Trim8: the z-score is inactive: -0.361.
As for GGAGACUCUCACCUAUCAUTT against Doc2g, the z-score is inactive: 1.08.
Turning to CCUCUCCUUCUUAGACAUGTT against Olfr724, the z-score is inactive: 0.947.
Next, “CGACAUGUACGCUUUUUGUTT against E430004F17Rik”: inactive: -0.362; “GCACGAGAUUGACUUGCCUTT against D18Ertd653e”: inactive: 0.0698.
For GCCAUCGUGCGCAUGAUUUTT against Gstz1 the value was inactive: -0.315.
As to “GGUGUUCUCGGUUUGAUCCTT against A930026L03Rik”, the z-score is inactive: -0.904.
As for GGAUGGUGUUGUGUUUAAATT against Chst2, the z-score was inactive: 1.58.
For CCUUCGAAUCUGAAACCUUTT against Slc27a3, the z-score was inactive: -0.0884.
With “GGCCUGUGAUCAGAUGUACTT against 2900010M23Rik”, the z-score is inactive: -0.0114.
For CCUACCAGUUCCUAUUUAGTT against Alas2 the value was inactive: -1.14; for CGGUCAAUACAAAUGCACUTT against Fcrh3, inactive: -0.334; for GCUAUCACUUUUCAUUAGATT against G0s2, inactive: 1.47.
Consider GCAUCUGUAAAUCUUUAGCTT against Gpr85, for which the z-score is inactive: 0.596.
Turning to GCACUUUGGCAUAUUUUCATT against Slc6a15, the z-score was inactive: 1.16.
For CGAGAUGAAUUUCUAGUAGTT against Tubgcp3 the value was inactive: -0.252; for “GGAAGAAUUCUCAAAGAAUTT against 1200016D23Rik”, inactive: 0.309.
Next, GGUGAAGAGUAAGAUCUUGTT against Gga1: inactive: 0.691; GGACGGUCAUGUCUAUGAATT against Pglyrp1: inactive: 0.417.
With GGUGAUCUGAUAGUCAGAUTT against BB128963, the z-score is inactive: 0.0602.
Turning to GGUUUUAAUUGUUCAGACGTT against Lrrtm3, the z-score was inactive: 0.563.
For “GGUGGAAAUUUUCAGAGAATT against 4933411G06Rik” the value was inactive: 1.02; for “UAUGUUGGAGCCUAUGUUCTT against 5930434B04Rik”, inactive: -1.39; for “GGACACCAAAAAUGUAAACTT against 4933411K20Rik”, inactive: -0.579.
Next, CGUGACAAAUUGAAGGAAATT against Sh3d1B: inactive: 0.0786; GGAUCUCCUUUUUUUUCAATT against Gabrr1: inactive: 2.27.
On to AUGAGGAGACUCUUUGCUATT against Olfr1317, for which the z-score is inactive: 0.0996.
For “CGGUUCUGCAUAAAAGAACTT against 9130023D20Rik”, the z-score is inactive: 0.397.
For GGGAAGGAUUAUGUCAAAUTT against Kit, the z-score was inactive: 1.52.
Next, GCUCAAGGCUAAGAUCAUUTT against AI449705: inactive: -1.31.
Consider GGUCAGAAUAUCCUCUUUUTT against Serpina9, for which the z-score was inactive: -2.71.
Regarding GGAAAACGAAAGAAACGAUTT against Rab15, the z-score was inactive: -0.187.
In the case of GGUAAAUUCUUUAAGGGACTT against Asah1, the z-score was inactive: -0.0846.
As for GGAGCAUUGAUAUAUGUCATT against Rragc, the z-score was inactive: 0.817.
Next, GGUGAUGUAUGUUACGCUGTT against Sfrs1: inactive: -2.09; GGGAUAGAGGCAGUUUUGATT against Rras2: inactive: 0.305.
On to “GGGUUUGAAGAGGUUUUCATT against 2610016F04Rik”, for which the z-score was inactive: -2.68.
On to GCUCGUCUCAGACUUAUUUTT against Il15, for which the z-score was inactive: 0.839.
For GGUUUACCCAUCUUGGCCATT against Vwf the value was inactive: 0.328; for GCCAUACAGGUAGCUUCUGTT against Tradd, inactive: 0.155; for GGCUGAACAGAAUUAAGAATT against Surf6, inactive: -0.146.
Regarding GCAAGAUGCACCUAGUGACTT against Cish, the z-score is inactive: 2.95.
With CCGAAUUCGUGUGAAACUGTT against Ablim2, the z-score is inactive: 0.0303.
Consider GCACUUUUAAAUUAAGGUCTT against Casp12, for which the z-score is inactive: -0.362.
Take GGAAAGAGUCAUGGAAAUATT against Supt16h: the z-score was inactive: -2.1.
In the case of GGCAGUUCAAAAGACCACATT against Zcchc7, the z-score is inactive: -0.655.
In the case of CCUUUUUGGUACGAGACGCTT against Pik3r1, the z-score was inactive: 0.294.
For CGUGCUUACAUAAUGGAAATT against Rnaseh1 the value was inactive: 0.314.
Turning to GGAUCAGAAUUCUUCCCAGTT against Pnrc2, the z-score was inactive: 0.325.
Turning to “CGUAUGUUCUGUCAGAUAUTT against 5630401D24Rik”, the z-score is inactive: -0.807.
Regarding GGAAAUACAGCUCGGAGCATT against Eaf2, the z-score was inactive: -1.68.
As to “GGACAUAAUGCAAAACAUUTT against 4933427L07Rik”, the z-score is inactive: -0.15.
Consider GGAAAGAAGCAGCGGACUUTT against Nme7, for which the z-score is inactive: -0.299.
Take GGGUAGAAAAGUGCAAUUUTT against Has2: the z-score was inactive: 0.124.
Consider GCACUAAGAAAUGGAUCUATT against Igbp1, for which the z-score was inactive: -1.72.
“GGUGAUUGAUGAGAUUUACTT against D1Ertd578e”: the z-score was inactive: 1.09.
Regarding GGGUGGCUUUCUAAUGUUGTT against Olfr362, the z-score was inactive: 0.486.
Take GGAAAGCUACAGAACCAUUTT against Tm6sf1: the z-score was inactive: 0.0899.
As to GGGAAUCUGAUGAAGAUGGTT against Grin3b, the z-score is inactive: -1.49.
For GGGAGGAACAUCACCUCAGTT against V2r1, the z-score was inactive: 0.0176.
Next, CCGAAUCGUCCUAAACCAATT against Cyp11a1: inactive: -0.532; GGUCAUUCUAGGCUACAAUTT against Crx: inactive: 0.986; GCCCUCAAUAAAUGCCAUCTT against Pcsk1n: inactive: 0.257.
Consider GGAUUCGCCUUUUCUACCGTT against Hoxb2, for which the z-score is inactive: 0.77.
For GGAAGCCUACCUUUAUAUUTT against Slc2a3, the z-score was inactive: 0.28.
Next, GUGGAAUUCAUGGAUGACATT against Rps28: inactive: -2.51; GGCUGGUGUGACAUUGCCUTT against Pglyrp3: inactive: 0.129.
Consider UGGAGGAUUACUCUUCUGCTT against LOC434484, for which the z-score was inactive: 0.737.
For “CCCUAAUGAAUGGUCUCAUTT against B230382K22Rik” the value was inactive: -0.616; for GCCAUCACAAUUCUAAUCCTT against V2r1, inactive: 1.02; for GGGAUCAGAGAUAUAGCCATT against V1ri1, inactive: -1.46.
For GGCGUGACUUCCACAAGAGTT against Fabp4, the z-score was inactive: 0.274.
Regarding “GGCCUUCUUUGAUGUGAAGTT against B230113C15Rik”, the z-score is inactive: 1.88.
Next, CCACUUGUUGAUCAAGAGATT against Adamts15: inactive: 0.323.
Regarding GGAAACCAUCAAAGUAUGGTT against Ndufa6, the z-score is inactive: 0.238.
Regarding GGAGCUAACAAAAUAGGCUTT against Epb4.1l4b, the z-score was inactive: 0.242.
On to CGUGUGAAGAAAAUUGAUGTT against Mmp27, for which the z-score was inactive: 0.81.
As for “GCAUUCGGUACUUAUUUGATT against C730031G17”, the z-score was inactive: -0.36.
In the case of “GGGAUUUCAUCUUUGAAAGTT against 1500040F11Rik”, the z-score is inactive: 0.147.
For GGUGGUGAAGCUAAAGCAGTT against Prkaca the value was inactive: 1.88; for “GGAGCUGAACUAUUGUCAUTT against A630007B06Rik”, inactive: 0.039; for GGCCAAGUGCACCAUCCUATT against Gng13, inactive: 0.793.
